## Percent effect of library compounds

Amino acid sequences for entries named in this document (tags omitted). Residues count along the entry.
UniProt A4I591, 1-473: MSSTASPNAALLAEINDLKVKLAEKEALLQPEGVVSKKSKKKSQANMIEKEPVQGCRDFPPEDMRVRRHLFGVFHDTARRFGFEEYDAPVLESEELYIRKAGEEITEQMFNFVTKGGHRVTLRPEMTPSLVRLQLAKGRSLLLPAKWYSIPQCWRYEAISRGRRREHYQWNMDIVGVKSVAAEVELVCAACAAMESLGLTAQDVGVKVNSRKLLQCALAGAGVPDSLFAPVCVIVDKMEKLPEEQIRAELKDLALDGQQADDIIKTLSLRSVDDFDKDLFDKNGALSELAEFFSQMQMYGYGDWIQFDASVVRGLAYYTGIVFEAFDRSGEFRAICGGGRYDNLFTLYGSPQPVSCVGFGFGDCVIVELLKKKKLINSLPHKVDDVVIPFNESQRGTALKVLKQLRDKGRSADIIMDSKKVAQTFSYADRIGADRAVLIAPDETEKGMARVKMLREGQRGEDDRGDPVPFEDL

Measurements from “University of Dundee, Small-Polar-MMV Screening Library” (2021), ChEMBL document CHEMBL3988442.

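Enzyme assay of histidyl-tRNA synthetase; the read-out is not stated. Target: Histidine-tRNA ligase, Leishmania infantum (UniProt A4I591). Tested at 30 µM. The record gives no direction; compounds that gave an IC50 in retests scored well above the rest, so higher reads as stronger inhibition. The assay is labelled LdHisRS but filed under L. infantum. About 69,000 compounds were tested under these conditions; 0.6% (about 410) showed 50% or more at least once.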

Values are the deposited “Percent Effect”, in %. How 0% and 100% were set is not recorded. Most values in the screen are low, and negative values occur. Compounds were drawn at random from those tested, without regard to their results.

Compound,effect
CC(C)N(Cc1nccn1C)C(=O)c1cc(Cl)c[nH]c1=O,7.5
CC(C)(C)OC(=O)NC(C)(C)c1noc(CN2CCCCC2)n1,10.68
Cn1cc(CCC(=O)N2C[C@@H]3CC[C@H](C2)N(Cc2ccccn2)C3)cn1,24.05
COc1ccc(Cl)cc1NCC(=O)NCCc1ccccn1,9.524
CN(C)C(=O)N1CCN(Cc2nnc(C(C)(C)C)o2)CC1,7.692
O=C(c1ccncc1)N1CCN(C(=O)c2coc3ccccc23)CC1,14.17
COCc1nnc(-c2cccc(C(=O)OC(C)C)c2)o1,3.968
CC(=O)C(Cc1ccccc1)NC(=O)CSc1nccn1C1CC1 (stereo not shown),17.14
O=C(Cn1ncc2c(c1=O)CCCC2)Nc1cccc2[nH]ccc12,20.88
Cc1noc(NC(=O)CCNC(=O)c2ccc(Br)cc2)n1,2.632
CS(=O)(=O)N1CCC2(CCN(C(=O)c3cccs3)CC2)CC1,15.84
COc1ccc(C(=O)N2CCOCC(CO)C2)cc1N1CCOCC1 (stereo not shown),14.89
Cn1ccnc1CCNS(=O)(=O)c1cccc(Br)c1,12.12
CC(C)c1nccn1C1CCCN(C(=O)c2cnn(C)c2C2CC2)C1 (stereo not shown),37.88
Fc1ccc(Oc2ccc(CNCC3CNc4ccnn4C3)cn2)cc1 (stereo not shown),31.3
COc1cccc(Oc2nc(C)c(C(=O)O)s2)c1OC,13.04
COCC1c2c(cnn2C)CCN1Cc1ccc(C)cc1 (stereo not shown),7.692
O=C1CO[C@@H]2CN(S(=O)(=O)c3ccc(F)cc3)C[C@H]2N1,21.15
O=C(NCCO)c1coc(Cn2cnc3ccccc32)n1,8.791
CCOCC1CN(S(=O)(=O)CC)Cc2nn(C)cc21 (stereo not shown),18
CCC1C(=O)NCCN1c1ccnc(C(C)(C)C)n1 (stereo not shown),10.84
CCS(=O)(=O)CCN(C)C(=O)NC(C)c1ccc(C)s1 (stereo not shown),12.2
Cc1nn(C)c2c(=O)n(CC(=O)NCCC(C)C)ccc12,5.435
Cc1ccc(N2CC[C@H]3C[C@H](C(=O)NCc4ccco4)O[C@H]3C2)nn1,18.06
COCCN(CC(F)F)c1cc(COC)nc2ncnn12,17.78
CCCc1noc(CN(C)C(=O)C2COc3ccccc3C2)n1 (stereo not shown),14.15
CN(Cc1cccnc1)CC1CN(C(=O)C2CC2)Cc2nccn2C1 (stereo not shown),5.882
CC(=O)N(C)Cc1ccccc1NC(=O)c1ccccc1C,8.046
CCc1nnc2n1CCN(Cc1noc(-c3cccc(C)c3)n1)C2,14.29
CN(C)c1cc(C(=O)N2CCCN(Cc3nccn3C)CC2)ccn1,-0.8929
CN(C)C(=O)[C@@H]1CCO[C@@H]2CCN(c3ncccn3)C[C@@H]21,0
O=C(NC1CC1)C1CCc2nnc(-c3cccnc3)n21 (stereo not shown),2.759
CCc1cc(NC(=O)C(c2cccc(F)c2)N2CCOCC2)[nH]n1 (stereo not shown),11.61
O=C1OCCN1CC(=O)N1C[C@H]2CC[C@@H]1CN(Cc1cscn1)C2,-18.18
CCOC(=O)c1cnn(-c2cc(Oc3ccccc3)ncn2)c1N,7.143
COCCN(C)C[C@@H]1CN(C(=O)c2cccc(Cl)c2)C[C@@H]1CO,17.98
CC(=O)N1CCN(Cc2ccc(C)o2)CC2(CC(=O)N(C)C2)C1 (stereo not shown),26.61
C=C(C)COc1cccc(CN(C)C(C)c2ccncn2)c1 (stereo not shown),7.895
O=c1[nH]nc(SCC2CCCCO2)n1C1CC1 (stereo not shown),1.613
Cc1ccc(NC(=O)NC(C)c2nc[nH]n2)cc1 (stereo not shown),13.21
CCn1ncc(CN2CCc3nc(-c4cccnc4)nc(O)c3C2)c1C,-9.375
CC1(C(N)=O)CCCN(c2cnccn2)C1 (stereo not shown),7.586
CN(C)c1cccc(C(=O)NCC2(O)CCOCC2)c1,23.29
COCCN(C)Cc1cc(Cl)ccc1OCC(O)CN1CCCCCC1 (stereo not shown),22.89
Cc1cc2nc(C(C)C)cc(N[C@H](C(N)=O)C(C)C)n2n1,1.639
CC[C@@H]1N(Cc2ccncc2)CCC[C@]12CCC(=O)N2C,24.77
COc1ccc(CN(C(=O)C2CCCS2)c2ccncc2)cc1 (stereo not shown),5.376
CN(C(=O)Cn1nc(-c2cccs2)ccc1=O)C1CCS(=O)(=O)C1 (stereo not shown),-2.857
CC(C)(C)OC(=O)N1CCN(C(=O)c2cnn3c2OCCC3)CC1,8.989
CNc1ncc2c(n1)CN(CCc1ccc(Cl)cc1)C2=O,23.46
Cc1ccc(S(=O)(=O)N2CCC(N3CCCCC3)CC2)cc1C,12.33
CCNc1cc2c(nn1)CCN(C(=O)C1COc3ccccc3O1)C2 (stereo not shown),8.264
O=C1NC2(CCN(C(=O)N3CCOCC3)CC2)CC1c1cccnc1 (stereo not shown),15.96
CN1CCOC(CNCc2ccccc2OCc2ccccn2)C1 (stereo not shown),14.68
CC(C)(C)c1cn(C[C@H]2CC3CCN2C[C@@H]3C(=O)N2CCOCC2)nn1 (stereo partly shown),-1.351
CN(C)CCn1c(=O)oc2ccc(NC(=O)c3cc(Cl)c[nH]3)cc21,43.69
Cc1cc(CNC(=O)NCCCC(=O)N2CCc3ccccc32)no1,9.326
CCc1ccccc1C(=O)NS(=O)(=O)CCCC#N,6.579
CCNc1nnc(CCn2nc(C)c(Br)c2C)s1,10.34
CCC(=O)N1CCC2(COCc3cnc(NCc4ccco4)nc32)C1 (stereo not shown),15.28
Fc1cnc(N2CC[C@@H]3OC(COCc4cccnc4)CC[C@@H]32)nc1 (stereo partly shown),5.263
FC(F)(F)c1cc(C2CCCN(c3cnccn3)C2)n2ccnc2n1 (stereo not shown),13.42
CCOc1ccc(NC(=O)NCc2cccnc2OCC)cc1,7.692
COCCCN1Cc2cccc(NC(=O)c3ccccc3C)c2C1,24.11
c1nc(CCC2CCCN2)cc(N2CCCOCC2)n1 (stereo not shown),13.89
CCc1cnc(N)nc1N1CCCC2(CCOCC2)C1,10.53
CN1CCC(N(Cc2ccccc2)C(=O)c2ccn3cncc3c2)CC1,8.333
COc1cccc(S(=O)(=O)N2CCCc3c(OC)nn(C)c3C2)c1,19.74
Cc1nc(C)c(CN2CCOC(Cc3ccccc3Cl)C2)nc1C (stereo not shown),18.6
CN(CCO)Cc1nnc(C2CCN(C(=O)c3cccn3C)CC2)n1C,1.042
CCN1CC2(CC1=O)CN(C(=O)C(C)C)CCN(S(=O)(=O)CC)C2 (stereo not shown),15.79
CC(c1ccon1)N(C)Cc1cc(O)c2cc(F)ccc2n1 (stereo not shown),13.54
COc1c(C2CCCN2Cc2cc(C)no2)c(C)nn1C (stereo not shown),9.231
CN(C)CCN(C)C1CCN(C(C(=O)O)c2ccc(F)c(Cl)c2)CC1 (stereo not shown),20.98
O=C(c1ccco1)N1CCO[C@@H]2CN(c3ccccn3)CC[C@@H]2C1,17.54
Cc1ncsc1CN1CC(C)(C2CC2)CC1=O (stereo not shown),10
Cc1n[nH]c(C2CN(CCc3cccs3)CCO2)n1 (stereo not shown),6.838
Cc1csc(CN(C)C(=O)Nc2cnn(CC3CCCO3)c2)n1 (stereo not shown),10.2
O=C(O)CCc1nc2nccc(-c3ccc(F)cc3)n2n1,14.43
CO[C@@H]1CCN(Cc2nccs2)C[C@@H]1Cc1ccccc1,20.59
COc1cccc2c1N(CC(=O)Nc1ccc(Br)cn1)CCC2,16.13
CN(C)c1cccc(C(=O)NCC(O)c2cccs2)c1 (stereo not shown),-1.653
CNc1cc(C2CN(Cc3coc(C)n3)CCO2)nc(C)n1 (stereo not shown),11.72
c1cncc(C2COC3(CCN(Cc4ccsc4)CC3)C2)c1 (stereo not shown),8.333
Cc1ccc(C(=O)NCC2CCN(Cc3ccccc3C#N)C2)cn1 (stereo not shown),17.6
CSc1nsc(NC(=O)N(C)Cc2ccc3c(c2)OCO3)n1,5.181
Cc1nn(CC(=O)N2CCCCC2Cn2cccn2)c(C)c1Cl (stereo not shown),15.38
CC(C)NC(=O)N[C@H]1C[C@@H](c2nc(-c3ccncc3)no2)N(C)C1,-1.351
CN(C)C(=O)NCc1nnc2n1CCN(Cc1cccs1)C2,8.547
CC(=O)N1CC[C@H]2[C@H](C[C@@H](CN3CCCC3)N2c2nccs2)C1,5.769
CCN1CCC(CNC(=O)C(c2ccc(F)cc2)N(C)C)(N(C)C)CC1 (stereo not shown),18.31
COc1ccc2c(c1)C(NCCc1ncc(C)s1)CCCO2 (stereo not shown),8.889

Some entries from above, unchanged:

With Cc1n[nH]c(C2CN(CCc3cccs3)CCO2)n1 (stereo not shown) the screen gave 6.838%.
With COc1ccc(C(=O)N2CCOCC(CO)C2)cc1N1CCOCC1 (stereo not shown) the screen gave 14.89%.
With Cc1ccc(NC(=O)NC(C)c2nc[nH]n2)cc1 (stereo not shown) the screen gave 13.21%.
With CS(=O)(=O)N1CCC2(CCN(C(=O)c3cccs3)CC2)CC1 the screen gave 15.84%.
With CN(C)c1cc(C(=O)N2CCCN(Cc3nccn3C)CC2)ccn1 the screen gave -0.8929%.